One sequence from US20130323813, “PEPTIDES FOR THE SPECIFIC BINDING OF RNA TARGETS” (THE UNIVERSITY OF WESTERN AUSTRALIA, published 2013) can be followed below.

Changes are numbered by the printed parent chain. For part of these data: No signal at the amounts used counts as a negative. Protein sequences can lack the tags named with them. For part of these data: At least one result comes from cells or an extract, where the contact may be indirect. For part of these data: A weaker result is weaker than the reference pair of the same experiment.

Holding throughout (test): one hybrid
Data set [1] addresses T1, PUM1 PUF CR (repeat 6 Cys12/Arg16) (Homo sapiens) (UniProt Q14671).
T1 sequence: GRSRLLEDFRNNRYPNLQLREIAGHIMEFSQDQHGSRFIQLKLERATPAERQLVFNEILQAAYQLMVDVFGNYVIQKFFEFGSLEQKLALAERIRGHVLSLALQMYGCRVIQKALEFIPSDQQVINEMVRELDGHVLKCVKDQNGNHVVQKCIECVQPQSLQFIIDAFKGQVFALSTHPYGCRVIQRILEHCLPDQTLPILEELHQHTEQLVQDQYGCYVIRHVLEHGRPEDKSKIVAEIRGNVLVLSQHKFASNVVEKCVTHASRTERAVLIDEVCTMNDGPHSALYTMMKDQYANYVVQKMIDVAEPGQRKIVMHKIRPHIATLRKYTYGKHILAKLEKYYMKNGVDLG
As to conditions: yeast three-hybrid; purified recombinant protein.

In data set [2] the target is T2, PUM1 PUF GR repeat 3 (Homo sapiens) (UniProt Q14671).
T2 sequence: T1 sequence with C108G, Q112R, C218N, R222Q
As to conditions: yeast three-hybrid; protein in cells; protein details: Gal4 activation domain fusion.

The target in data set [3] is T3, PUM1 PUF SR (repeat 6 Ser12/Arg16) (Homo sapiens) (UniProt Q14671).
T3 sequence: T1 sequence with C218S
The following applies: yeast three-hybrid; protein in cells; protein details: Gal4 activation domain fusion.

Data set [4] has as its target T4, PUM1 PUF GR (repeat 6 Gly12/Arg16) (Homo sapiens) (UniProt Q14671).
T4 sequence: T1 sequence with C218G
As to conditions: yeast three-hybrid; purified recombinant protein.

The target of data set [5] is T5, PUM1 PUF AR (repeat 6 Ala12/Arg16) (Homo sapiens) (UniProt Q14671).
T5 sequence: T1 sequence with C218A
As to conditions: yeast three-hybrid; protein in cells; protein details: Gal4 activation domain fusion.

Data set [6] addresses T6, PUM1 PUF GR repeat 7 (Homo sapiens) (UniProt Q14671).
T6 sequence: T1 sequence with C218N, R222Q, S254G, E258R
As to conditions: yeast three-hybrid; protein in cells; protein details: Gal4 activation domain fusion.

Consider “CCGGCUAGCAAUUGUAUAUAUUAAUUUAAUAAAGCAUG [NRE]”, for which the binding result in data set [1] was “no binding”; in data set [2], “binds more weakly”; in data set [3] it was “no binding”; in data set [4], “no binding”; in data set [5] it was “no binding”; in data set [6], “binds more weakly”.
